# Counter-ions that a name gives are not always drawn. This is one part of the list. Most values lie at the level of the controls, where differences are scatter.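 Reh is a human leukemia cell line; the read-out is the median γH2AX antibody signal in S-phase cells by flow cytometry, with the score counting standard deviations from the median difference of each paired set of plates. Scores above 2.5 were called candidate hits, while scores below -2 mark compounds that lowered the MK1775-induced damage.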
# Test system: Reh
# Assay: Z' of S-phase gammaH2AX difference (drug + MK1775 minus drug alone) (Z-score); higher = stronger synergistic S-phase DNA damage with MK1775
# Settings: MK1775 concentration 400 nM; first compound 10 µM; 4 h
row,Compound,Z' of S-phase gammaH2AX difference (Z-score)
1,COC(=O)C(C)(N)Cc1ccc(O)cc1 (racemic) [alpha-Methyl-DL-tyrosine methyl ester hydrochloride] + C=CCn1c(=O)c2cnc(Nc3ccc(N4CCN(C)CC4)cc3)nc2n1-c1cccc(C(C)(C)O)n1 [MK1775],inactive: -0.146
2,CC(C)C(=O)c1c(C(C)C)nn2ccccc12 [Ibudilast] + C=CCn1c(=O)c2cnc(Nc3ccc(N4CCN(C)CC4)cc3)nc2n1-c1cccc(C(C)(C)O)n1 [MK1775],inactive: -0.0899
3,"Nc1ncnc2c1ncn2[C@@H]1O[C@@H]2COP(=O)(O)O[C@H]2[C@H]1O [Adenosine 3',5'-cyclic monophosphate] + C=CCn1c(=O)c2cnc(Nc3ccc(N4CCN(C)CC4)cc3)nc2n1-c1cccc(C(C)(C)O)n1 [MK1775]",inactive: -0.424
4,NCCc1ccc(O)c(O)c1 [Dopamine hydrochloride] + C=CCn1c(=O)c2cnc(Nc3ccc(N4CCN(C)CC4)cc3)nc2n1-c1cccc(C(C)(C)O)n1 [MK1775],inactive: -0.721
5,O=C(/C=C/c1cccnc1)NCCCCC1CCN(C(=O)c2ccccc2)CC1 + C=CCn1c(=O)c2cnc(Nc3ccc(N4CCN(C)CC4)cc3)nc2n1-c1cccc(C(C)(C)O)n1 [MK1775],inactive: 0.641
6,C[C@H](Cc1ccc(O)c(O)c1)[C@@H](C)Cc1ccc(O)c(O)c1 + C=CCn1c(=O)c2cnc(Nc3ccc(N4CCN(C)CC4)cc3)nc2n1-c1cccc(C(C)(C)O)n1 [MK1775],inactive: -0.733
7,NC(N)=NC(N)=Nc1ccccc1 [1-Phenylbiguanide] + C=CCn1c(=O)c2cnc(Nc3ccc(N4CCN(C)CC4)cc3)nc2n1-c1cccc(C(C)(C)O)n1 [MK1775],inactive: -0.888
8,NC(=O)c1ccccc1 [Benzamide] + C=CCn1c(=O)c2cnc(Nc3ccc(N4CCN(C)CC4)cc3)nc2n1-c1cccc(C(C)(C)O)n1 [MK1775],inactive: -0.184
9,C[C@H](CS)C(=O)N1CCC[C@H]1C(=O)O [Captopril] + C=CCn1c(=O)c2cnc(Nc3ccc(N4CCN(C)CC4)cc3)nc2n1-c1cccc(C(C)(C)O)n1 [MK1775],inactive: -0.15
10,Cn1cnc2c(F)c(Nc3ccc(Br)cc3Cl)c(C(=O)NOCCO)cc21 [AZD6244 (Selumetinib)] + C=CCn1c(=O)c2cnc(Nc3ccc(N4CCN(C)CC4)cc3)nc2n1-c1cccc(C(C)(C)O)n1 [MK1775],inactive: 0.196
11,CCCN(CC1CC1)c1nc(C)nc(Nc2c(Cl)cc(Cl)cc2Cl)c1Cl + C=CCn1c(=O)c2cnc(Nc3ccc(N4CCN(C)CC4)cc3)nc2n1-c1cccc(C(C)(C)O)n1 [MK1775],inactive: 1.14
12,Nc1ncnc2c1ncn2C1CCCC1 [9-cyclopentyladenine] + C=CCn1c(=O)c2cnc(Nc3ccc(N4CCN(C)CC4)cc3)nc2n1-c1cccc(C(C)(C)O)n1 [MK1775],inactive: -0.0301
13,O=C1NC(c2cccc([N+](=O)[O-])c2)=CCN1c1ccccc1O [Icilin] + C=CCn1c(=O)c2cnc(Nc3ccc(N4CCN(C)CC4)cc3)nc2n1-c1cccc(C(C)(C)O)n1 [MK1775],inactive: 1.01
14,CCCCCC(O)CCCC(=O)O (stereo unspecified) [5-hydroxydecanoic acid sodium] + C=CCn1c(=O)c2cnc(Nc3ccc(N4CCN(C)CC4)cc3)nc2n1-c1cccc(C(C)(C)O)n1 [MK1775],inactive: 1.03
15,N#CC1(c2ccc(NC(=O)c3cccnc3NCc3ccncc3)cc2)CCCC1 [Apatinib (YN968D1)] + C=CCn1c(=O)c2cnc(Nc3ccc(N4CCN(C)CC4)cc3)nc2n1-c1cccc(C(C)(C)O)n1 [MK1775],inactive: -0.112
16,CCCOc1ccccc1-c1nc2[nH]nnc2c(=O)[nH]1 [Zaprinast] + C=CCn1c(=O)c2cnc(Nc3ccc(N4CCN(C)CC4)cc3)nc2n1-c1cccc(C(C)(C)O)n1 [MK1775],inactive: 0.818
17,COc1ccc(Cl)cc1C(=O)NCCc1ccc(S(=O)(=O)NC(=O)NC2CCCCC2)cc1 [Glibenclamide] + C=CCn1c(=O)c2cnc(Nc3ccc(N4CCN(C)CC4)cc3)nc2n1-c1cccc(C(C)(C)O)n1 [MK1775],inactive: 1.94
18,CC#C[C@]1(O)CC[C@H]2[C@@H]3CCC4=CC(=O)CCC4=C3[C@@H](c3ccc(N(C)C)cc3)C[C@@]21C [Mifepristone (Mifeprex)] + C=CCn1c(=O)c2cnc(Nc3ccc(N4CCN(C)CC4)cc3)nc2n1-c1cccc(C(C)(C)O)n1 [MK1775],inactive: -0.313

# Fetched one by one from the entries so far (two):
row,Compound,Z' of S-phase gammaH2AX difference (Z-score)
17,COc1ccc(Cl)cc1C(=O)NCCc1ccc(S(=O)(=O)NC(=O)NC2CCCCC2)cc1 [Glibenclamide] + C=CCn1c(=O)c2cnc(Nc3ccc(N4CCN(C)CC4)cc3)nc2n1-c1cccc(C(C)(C)O)n1 [MK1775],inactive: 1.94
13,O=C1NC(c2cccc([N+](=O)[O-])c2)=CCN1c1ccccc1O [Icilin] + C=CCn1c(=O)c2cnc(Nc3ccc(N4CCN(C)CC4)cc3)nc2n1-c1cccc(C(C)(C)O)n1 [MK1775],inactive: 1.01

# (continued)

row,Compound,Z' of S-phase gammaH2AX difference (Z-score)
1,CC#C[C@]1(O)CC[C@H]2[C@@H]3CCC4=CC(=O)CCC4=C3[C@@H](c3ccc(N(C)C)cc3)C[C@@]21C [Mifepristone] + C=CCn1c(=O)c2cnc(Nc3ccc(N4CCN(C)CC4)cc3)nc2n1-c1cccc(C(C)(C)O)n1 [MK1775],inactive: -0.0388
2,CC[C@@H]1C(=O)N(C)c2cnc(Nc3ccc(C(=O)N[C@H]4CC[C@H](N5CCN(CC6CC6)CC5)CC4)cc3OC)nc2N1C(C)C [BI6727 (Volasertib)] + C=CCn1c(=O)c2cnc(Nc3ccc(N4CCN(C)CC4)cc3)nc2n1-c1cccc(C(C)(C)O)n1 [MK1775],inactive: -0.499
3,"Cc1ccc(OCC(O)C(C)NC(C)C)c2c1CCC2 (stereo unspecified) [ICI 118,551 hydrochloride] + C=CCn1c(=O)c2cnc(Nc3ccc(N4CCN(C)CC4)cc3)nc2n1-c1cccc(C(C)(C)O)n1 [MK1775]",inactive: -0.532
4,O=C(O)C1=CC(=C(c2ccc(O)c(C(=O)O)c2)c2ccc(O)c(C(=O)O)c2)C=CC1=O [Aurintricarboxylic acid] + C=CCn1c(=O)c2cnc(Nc3ccc(N4CCN(C)CC4)cc3)nc2n1-c1cccc(C(C)(C)O)n1 [MK1775],inactive: -0.287
5,NC(C(=O)O)C(O)C(=O)O (racemic) [DL-threo-beta-hydroxyaspartic acid] + C=CCn1c(=O)c2cnc(Nc3ccc(N4CCN(C)CC4)cc3)nc2n1-c1cccc(C(C)(C)O)n1 [MK1775],inactive: 0.0899
6,O=c1ccn([C@@H]2O[C@H](COP(=O)(O)OP(=O)(O)O)[C@@H](O)[C@H]2O)c(=O)[nH]1 [Uridine 5'-diphosphate sodium] + C=CCn1c(=O)c2cnc(Nc3ccc(N4CCN(C)CC4)cc3)nc2n1-c1cccc(C(C)(C)O)n1 [MK1775],inactive: 0.505
7,CC(C(O)c1ccc(O)cc1)N1CCC(Cc2ccccc2)CC1 (stereo unspecified) [Ifenprodil tartrate] + C=CCn1c(=O)c2cnc(Nc3ccc(N4CCN(C)CC4)cc3)nc2n1-c1cccc(C(C)(C)O)n1 [MK1775],inactive: 0.673
8,Cn1cc(C(F)(F)F)nc1-c1ccc(OCC(O)CNCCOc2ccc(O)c(C(N)=O)c2)cc1 (stereo unspecified) + C=CCn1c(=O)c2cnc(Nc3ccc(N4CCN(C)CC4)cc3)nc2n1-c1cccc(C(C)(C)O)n1 [MK1775],inactive: -0.11
9,C=C/C(C)=C/[C@@]1(C)SC(=O)C(C)=C1O [Thiolactomycin] + C=CCn1c(=O)c2cnc(Nc3ccc(N4CCN(C)CC4)cc3)nc2n1-c1cccc(C(C)(C)O)n1 [MK1775],inactive: -0.378
10,CC(C)(C)c1cc(NC(=O)Nc2ccc(-c3cn4c(n3)sc3cc(OCCN5CCOCC5)ccc34)cc2)no1 [Quizartinib (AC220)] + C=CCn1c(=O)c2cnc(Nc3ccc(N4CCN(C)CC4)cc3)nc2n1-c1cccc(C(C)(C)O)n1 [MK1775],inactive: -0.877
11,O=C(/C=C/c1cccc(S(=O)(=O)Nc2ccccc2)c1)NO [Belinostat (PXD101)] + C=CCn1c(=O)c2cnc(Nc3ccc(N4CCN(C)CC4)cc3)nc2n1-c1cccc(C(C)(C)O)n1 [MK1775],inactive: 0.427
12,COc1ccc2c(c1)c(CC(=O)O)c(C)n2C(=O)c1ccccc1 [1-benzoyl-5-methoxy-2-methylindole-3-acetic acid] + C=CCn1c(=O)c2cnc(Nc3ccc(N4CCN(C)CC4)cc3)nc2n1-c1cccc(C(C)(C)O)n1 [MK1775],inactive: 0.174
13,Cc1cc(C(C)(C)C)cc(C)c1CC1=NCCN1 [Xylometazoline hydrochloride] + C=CCn1c(=O)c2cnc(Nc3ccc(N4CCN(C)CC4)cc3)nc2n1-c1cccc(C(C)(C)O)n1 [MK1775],inactive: 0.293
14,"O=c1[nH]ccc2c(O)cccc12 [1,5-Isoquinolinediol] + C=CCn1c(=O)c2cnc(Nc3ccc(N4CCN(C)CC4)cc3)nc2n1-c1cccc(C(C)(C)O)n1 [MK1775]",inactive: 1.6
15,O=C(c1cc(O)c(O)c([N+](=O)[O-])c1)c1ccccc1F + C=CCn1c(=O)c2cnc(Nc3ccc(N4CCN(C)CC4)cc3)nc2n1-c1cccc(C(C)(C)O)n1 [MK1775],inactive: 0.162
16,COc1ccc2c3n(c(=NC(=O)c4cccnc4)nc2c1OC)CCN3 + C=CCn1c(=O)c2cnc(Nc3ccc(N4CCN(C)CC4)cc3)nc2n1-c1cccc(C(C)(C)O)n1 [MK1775],inactive: -0.19
17,CCN(CC)CCOCCOC(=O)C1(c2ccccc2)CCCC1 [Carbetapentane citrate] + C=CCn1c(=O)c2cnc(Nc3ccc(N4CCN(C)CC4)cc3)nc2n1-c1cccc(C(C)(C)O)n1 [MK1775],inactive: -0.655
18,CNC(=O)c1ccc(N2C(=S)N(c3ccc(C#N)c(C(F)(F)F)c3)C(=O)C2(C)C)cc1F [MDV3100 (Enzalutamide)] + C=CCn1c(=O)c2cnc(Nc3ccc(N4CCN(C)CC4)cc3)nc2n1-c1cccc(C(C)(C)O)n1 [MK1775],inactive: 0.149

# Reference: the supplement of paper PMC5355238
